# Source: paper PMC11170094
# Amino acid sequences for entries named in this document (tags omitted).
# UniProt P49841: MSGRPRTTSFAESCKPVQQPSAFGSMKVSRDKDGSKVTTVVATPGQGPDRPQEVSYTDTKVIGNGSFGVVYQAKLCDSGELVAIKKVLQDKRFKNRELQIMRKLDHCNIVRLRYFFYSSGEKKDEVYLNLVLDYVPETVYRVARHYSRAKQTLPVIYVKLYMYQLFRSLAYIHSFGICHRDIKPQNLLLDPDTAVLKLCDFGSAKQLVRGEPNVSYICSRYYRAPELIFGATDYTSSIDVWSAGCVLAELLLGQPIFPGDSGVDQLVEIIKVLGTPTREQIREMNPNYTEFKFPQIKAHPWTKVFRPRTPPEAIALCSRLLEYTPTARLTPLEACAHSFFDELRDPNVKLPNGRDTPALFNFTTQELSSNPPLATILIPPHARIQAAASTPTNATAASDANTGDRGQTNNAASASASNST
# These are yes or no findings as the source states them, for the method shown. In cells and extracts the contact can be indirect. Some binding calls cover weakened binding; strength is not graded here.
# Target: T1, FOXM1 (human (in ovarian cancer cells)) (UniProt Q08050)
# T1 sequence: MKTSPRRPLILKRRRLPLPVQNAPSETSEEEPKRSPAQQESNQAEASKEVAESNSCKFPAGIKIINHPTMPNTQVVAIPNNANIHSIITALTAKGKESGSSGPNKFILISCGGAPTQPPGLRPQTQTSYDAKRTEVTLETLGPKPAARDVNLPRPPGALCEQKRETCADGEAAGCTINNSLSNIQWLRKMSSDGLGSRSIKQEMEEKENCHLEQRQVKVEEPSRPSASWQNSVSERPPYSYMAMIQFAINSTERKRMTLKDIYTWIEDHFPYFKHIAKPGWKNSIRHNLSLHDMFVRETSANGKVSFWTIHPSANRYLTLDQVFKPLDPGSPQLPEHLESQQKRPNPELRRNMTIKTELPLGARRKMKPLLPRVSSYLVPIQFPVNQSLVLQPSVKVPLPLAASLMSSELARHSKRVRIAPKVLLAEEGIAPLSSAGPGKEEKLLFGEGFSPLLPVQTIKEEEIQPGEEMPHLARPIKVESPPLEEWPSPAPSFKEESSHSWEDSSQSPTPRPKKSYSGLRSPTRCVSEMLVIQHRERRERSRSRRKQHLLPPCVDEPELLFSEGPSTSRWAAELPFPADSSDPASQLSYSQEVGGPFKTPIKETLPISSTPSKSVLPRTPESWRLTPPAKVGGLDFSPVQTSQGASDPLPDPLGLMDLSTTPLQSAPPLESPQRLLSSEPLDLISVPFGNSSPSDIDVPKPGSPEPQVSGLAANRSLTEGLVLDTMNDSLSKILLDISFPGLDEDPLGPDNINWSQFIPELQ
# Experiment: co-IP; co-immunoprecipitation from ovarian cancer cells; bait, antibodies and cell line not told in the text (Fig. S4B, C)
substance,measurement,value
GSK3β (from UniProt P49841 1-420) (enzyme),binding,binds
